Assay results from US20220306764A1.
Positions count from the first letter of the chain named. Results are given in words; binding and its absence hold for the method and conditions named. Some results given as binding are weak or reduced against the parent protein; the word gives no strength.

By UniProt entry, the sequences of proteins in these tests, tags left out. Where a name states a change or a piece, a line headed by the entry shows the natural chain unless it says otherwise. Residues count along the entry.
UniProt Q04609: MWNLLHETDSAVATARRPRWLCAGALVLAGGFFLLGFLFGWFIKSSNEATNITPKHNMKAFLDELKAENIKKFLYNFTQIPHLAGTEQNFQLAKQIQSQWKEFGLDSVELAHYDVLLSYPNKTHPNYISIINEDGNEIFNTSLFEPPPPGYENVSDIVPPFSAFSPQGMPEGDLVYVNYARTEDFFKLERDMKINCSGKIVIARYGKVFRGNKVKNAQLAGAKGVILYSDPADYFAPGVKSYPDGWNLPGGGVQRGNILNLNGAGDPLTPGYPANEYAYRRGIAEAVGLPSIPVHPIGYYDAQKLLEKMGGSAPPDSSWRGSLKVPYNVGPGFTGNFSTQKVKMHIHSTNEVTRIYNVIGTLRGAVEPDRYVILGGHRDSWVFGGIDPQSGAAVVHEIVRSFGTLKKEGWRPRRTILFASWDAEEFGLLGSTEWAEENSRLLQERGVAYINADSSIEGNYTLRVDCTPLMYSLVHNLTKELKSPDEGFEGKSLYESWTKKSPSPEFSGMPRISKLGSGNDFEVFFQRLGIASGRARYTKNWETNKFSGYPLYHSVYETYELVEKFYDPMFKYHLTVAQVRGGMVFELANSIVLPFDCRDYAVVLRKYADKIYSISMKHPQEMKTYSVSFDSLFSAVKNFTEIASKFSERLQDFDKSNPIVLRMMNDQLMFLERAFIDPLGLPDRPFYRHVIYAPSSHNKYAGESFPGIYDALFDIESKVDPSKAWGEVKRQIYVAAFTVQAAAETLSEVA
purified extracellular domain of PSMA (prostate-specific membrane antigen), residues 44-750: residues 44-750 of Q04609

How the values were obtained:
[1] = target: PSMA on PC3-PIP (PSMA+) prostate cancer cells (UniProt Q04609); test: FACS on PC3-PIP cells
[2] = target: PSMA on PC3-PIP (PSMA+) prostate cancer cells (UniProt Q04609); test: flow cytometry on PC3-PIP cells, triplicate, means and SEM
[3] = target: PSMA on PC3-PIP (PSMA+) prostate cancer cells (UniProt Q04609); test: flow cytometry on PC3-PIP cells
[4] = target: PSMA on PC3-PIP (PSMA+) prostate cancer cells (UniProt Q04609); test: confocal imaging, Dylight 650-labelled protein, 15 min
[5] = target: PSMA on PC3-PIP (PSMA+) prostate cancer cells (UniProt Q04609); test: confocal microscopy of live cells, NB7cys labelled with Dylight 650, 15 min incubation
[6] = target: purified extracellular domain of PSMA (prostate-specific membrane antigen), residues 44-750 (UniProt Q04609); test: SPR, figure legend
[7] = target: PSMA on PC3-PIP (PSMA+) prostate cancer cells (UniProt Q04609); test: FACS on PC3-PIP cells, figure legend
[8] = target: purified extracellular domain of PSMA (prostate-specific membrane antigen), residues 44-750 (UniProt Q04609); test: ELISA of bacterial colonies on PSMA
[9] = target: purified extracellular domain of PSMA (prostate-specific membrane antigen), residues 44-750 (UniProt Q04609); test: ELISA of bacterial colonies on PSMA, figure legend
[10] = target: purified extracellular domain of PSMA (prostate-specific membrane antigen), residues 44-750 (UniProt Q04609); test: ELISA of single bacterial colonies on PSMA, absorbance 450 nm, one point each, no control bar shown
[11] = target: purified extracellular domain of PSMA (prostate-specific membrane antigen), residues 44-750 (UniProt Q04609); test: SPR (ProteOn XPR36), NB8 immobilised, soluble PSMA as analyte at 2.94-47.00 nM, BSA-referenced, 25 C
[12] = target: PSMA on PC3-PIP (PSMA+) prostate cancer cells (UniProt Q04609); test: flow cytometry on PC3-PIP (PSMA+) cells, anti-His-FITC detection, n=3
[13] = target: PSMA on PC3-PIP (PSMA+) prostate cancer cells (UniProt Q04609); test: confocal imaging of live PC3-PIP cells, Dylight 488-labelled NB, 100 nM
[14] = target: purified extracellular domain of PSMA (prostate-specific membrane antigen), residues 44-750 (UniProt Q04609); test: SAXS, radius of gyration of PSMA (0.5 mg/ml) mixed with rising NB concentrations; the filing reads the shift of Rg as complex formation
[15] = target: purified extracellular domain of PSMA (prostate-specific membrane antigen), residues 44-750 (UniProt Q04609); test: SAXS of PSMA mixed with NB
[16] = target: PSMA on PC3-PIP (PSMA+) prostate cancer cells (UniProt Q04609); test: FACS titration on PC3-PIP cells, anti-His-FITC detection
[17] = target: purified extracellular domain of PSMA (prostate-specific membrane antigen), residues 44-750 (UniProt Q04609); test: SPR
[18] = target: purified extracellular domain of PSMA (prostate-specific membrane antigen), residues 44-750 (UniProt Q04609); test: SPR (ProteOn XPR36), NB37 immobilised, soluble PSMA as analyte at 2.94-47.00 nM, BSA-referenced, 25 C
[19] = target: purified extracellular domain of PSMA (prostate-specific membrane antigen), residues 44-750 (UniProt Q04609); test: SPR (ProteOn XPR36), NB13 immobilised, soluble PSMA as analyte at 2.94-47.00 nM, BSA-referenced, 25 C

Measured: binding

B1: NB7cys (NB7 with an added cysteine in the C-terminus) (VHH, not shown: small tags and cut ends)
VHH (part 1 of 2): QVQLQESGGGSVQAGGSLRLSCTAPGYTDSNYYMSWFRQAPGKEREWVAGVNTGRGSTSYADSVKGRFTISQDNAKNTMFLQMNSLKPEDTAIYYCAVAACHFCDSLPKTQDEYILWGQGTQVTVSSAAAYPYDVPDYGS
VHH (part 2 of 2): C
binds: [1] | [2] | [3] | [4] | [5]

B2: NB8 (VHH, not shown: small tags and cut ends)
VHH: QVQLQESGGGSVQAGGSLRLSCARSGWPYSTYSMNWFRQAPGKEREAVAGISSTMSGIIFAESKAGQFTISQDNAKNTVYLQMNNLKPEDTAIYYCAARRDYSLSSSSDDFDYWGQGTQVTVSS
not listed: [1] | [2] | [3] | [4] | [5] | [18] | [19]
binds: all other assays above

B3: NB37 (VHH, not shown: small tags and cut ends)
VHH: B2 VHH with Q13E
not listed: [1] | [2] | [3] | [4] | [5] | [11] | [19]
binds: all other assays above

B4: NB13 (VHH, not shown: small tags and cut ends)
VHH: QVQLQESGGGSVQTGGSLRLSCAASGYTASFSWIGYFRQAPGKEREGVAVINVGVGSTYYADSVKGRFTISRDNTENTISLEMNSLKPEDTGLYYCAGSLRWSRPPNPISEDAYNYWGQGTQVTVSS
not listed: [1] | [2] | [3] | [4] | [5] | [11] | [18]
binds: all other assays above
